Reference: US20250179160A1
No constants are given. Whether binding was seen depends on the method and setting. A result given as binding can be weak or reduced; the word gives no strength.

Assays:
[1] = molecular target: recombinant human Pro-Factor D (human); experiment: capture ELISA; antigen captured by goat polyclonal AF1824, hybridoma supernatant as detector (FIG. 15)
[2] = molecular target: recombinant human Pro-Factor D-His (human); experiment: ELISA with hybridoma supernatant on immobilized antigen
[3] = molecular target: recombinant human Pro-Factor D (human); experiment: capture ELISA: recombinant Factor D captured by plate-bound goat polyclonal AF1824; hybridoma supernatant diluted two-fold; HRP goat anti-mouse IgG Fc; OD450
[4] = molecular target: recombinant human Pro-Factor D (human); experiment: ELISA (legend of FIG. 17A)
[5] = molecular target: recombinant human Pro-Factor D (human); experiment: ELISA; antibody from 3 µg/ml in 3-fold dilutions on plates coated with 1 µg/ml antigen (FIG. 17A)
[6] = molecular target: recombinant human Pro-Factor D (human); experiment: ELISA: antibody titrated 3-fold from 3 ug/ml on plate coated with 1 ug/ml recombinant human pro-Factor D; HRP anti-mouse, rat or human secondary; OD450

Measured: binding

B1: 1F9, hybridoma supernatant (antibody, V domains shown)
VH: EVKLEESGGGLVQPGGSMKLSCVASGFTFGSYWMSWVRQSPEKGLEWVAEIRLKSDNYAAHYAESVKGKFTISRDDSKSRLYLQMNSLRGEDTGIYYCTNAWFASWGQGTLVTVSA
VL: DIVMSQSPSSLTVSVGEKVTMSCMSSQSLLYSKDQKNYLAWYQQKPGQSPTLLIYWASTRESGVPDRFTGSGSGTDFTLTISSVKAEDLAVYYCLQYYTYPYTFGGGTKLEIKR
binds: [1] | [2] | [3]

B2: 2A4, hybridoma supernatant (antibody, V domains shown)
VH: EVKLEESGGGLVQPGGSMKLSCVASGFTFSTYWMSWVRQSPEKGLEWVAEIRLKSDNYATHYTESVKGKFTISRDDSKSRLYLQMNSLRVEDTGIYYCTNAWFAYWGQGTLVTVSA
VL: DIVMSQSPSSLAVSVGEKFTMSCKSSQSLLYSRDQKNYLAWYQQQPGQSPKLLIYWASTRESGVPDRFTGSGSGTDFTLTISSVKTEDLAVYYCLQYYSYPYTFGGGTKLEIKR
binds: [1] | [2] | [3]

B3: 18F5, hybridoma supernatant (antibody, V domains shown)
VH: EVKLEESGGGLVQPGGSMKLSCVASGFTFGNYWMSWVRQSPEKGLEWVAEIRLKSDNYATHYAESVKGKFTISRDDSKSRLYLQMNSLRGEDTGLYYCTNAWFASWGQGTLVTVSA
VL: DIVMSQSPSSLAVSVGEKVTMSCMSSQSLLYSKDQKNYLAWYQQKPGQSPKLLIYWASTRESGVPDRFTGSGSGTDFTLTISSVKAEDLAVYYCLQYYTYPYTFGGGTKLEIKR
binds: [1] | [2] | [3]

B4: 20A1, hybridoma supernatant (antibody, V domains shown)
VH: EVKLEESGGGLVQPGGSMKLSCIASGFTFSTYWMSWVRQSPEKGLEWVAEIRLKSENYATYYAESVKGKFIISRDDSKSRLYLQMNSLRAEDTGIYYCTNAWFANWGQGTLVTVSA
VL: DIVMSQSPSSLVVSVGEKVTMSCKSSQNLLYSRDQKNYLAWYQQKPGQSPNLLIYWASTRESGVPDRFTGSGSGTDFSLTISSVKAEDLAVYYCLQYYSYPYTFGGGTKLEMKR
binds: [1] | [2] | [3]

B5: 18F5, purified recombinant, human IgG4 (antibody, V domains shown)
VH: EVKLEESGGGLVQPGGSMKLSCVASGFTFGNYWMSWVRQSPEKGLEWVAEIRLKSDNYATHYAESVKGKFTISRDDSKSRLYLQMNSLRGEDTGLYYCTNAWFASWGQGTLVTVSA
VL: DIVMSQSPSSLAVSVGEKVTMSCMSSQSLLYSKDQKNYLAWYQQKPGQSPKLLIYWASTRESGVPDRFTGSGSGTDFTLTISSVKAEDLAVYYCLQYYTYPYTFGGGTKLEIKR
binds: [4] | [5] | [6]

B6: 20A1, purified recombinant, human IgG4 (antibody, V domains shown)
VH: EVKLEESGGGLVQPGGSMKLSCIASGFTFSTYWMSWVRQSPEKGLEWVAEIRLKSENYATYYAESVKGKFIISRDDSKSRLYLQMNSLRAEDTGIYYCTNAWFANWGQGTLVTVSA
VL: DIVMSQSPSSLVVSVGEKVTMSCKSSQNLLYSRDQKNYLAWYQQKPGQSPNLLIYWASTRESGVPDRFTGSGSGTDFSLTISSVKAEDLAVYYCLQYYSYPYTFGGGTKLEMKR
binds: [4] | [5] | [6]

B7: 1F9, purified recombinant, human IgG4 (antibody, V domains shown)
VH: EVKLEESGGGLVQPGGSMKLSCVASGFTFGSYWMSWVRQSPEKGLEWVAEIRLKSDNYAAHYAESVKGKFTISRDDSKSRLYLQMNSLRGEDTGIYYCTNAWFASWGQGTLVTVSA
VL: DIVMSQSPSSLTVSVGEKVTMSCMSSQSLLYSKDQKNYLAWYQQKPGQSPTLLIYWASTRESGVPDRFTGSGSGTDFTLTISSVKAEDLAVYYCLQYYTYPYTFGGGTKLEIKR
binds: [4] | [5] | [6]

B8: 2A4, purified recombinant, human IgG4 (antibody, V domains shown)
VH: EVKLEESGGGLVQPGGSMKLSCVASGFTFSTYWMSWVRQSPEKGLEWVAEIRLKSDNYATHYTESVKGKFTISRDDSKSRLYLQMNSLRVEDTGIYYCTNAWFAYWGQGTLVTVSA
VL: DIVMSQSPSSLAVSVGEKFTMSCKSSQSLLYSRDQKNYLAWYQQQPGQSPKLLIYWASTRESGVPDRFTGSGSGTDFTLTISSVKTEDLAVYYCLQYYSYPYTFGGGTKLEIKR
binds: [4] | [5] | [6]
